# In patent US20200025759A1:
# Assays:
# Test in all cases: ELISA, virus solution immobilized on plate, anti-His-HRP detection
# [1] = biological target: intranuclear protein derived from the type-B influenza virus (B/Hokkaido/M2/2014) (type-B influenza virus (B/Hokkaido/M2/2014))
# [2] = biological target: intranuclear protein derived from type-A influenza virus H1N1 (A/Hyogo/YS/2011 pdm) (type-A influenza virus H1N1 (A/Hyogo/YS/2011 pdm))
# [3] = biological target: intranuclear protein derived from type-A influenza virus H1N1 (A/Hokkaido/6-5/2014 pdm) (type-A influenza virus H1N1 (A/Hokkaido/6-5/2014 pdm))
binder,measurement,setting,value
VHH antibody consisting of the amino acid sequence represented by SEQ ID NO: 8 (VHH) VHH: QVQLVESGGGLVQAGGSLRLSCIASGSIFSPNVMGWYRQAPGKPRELVAAITLGESTNYADSVKGRFTISRSNAENTVYLQMDSLKPEDTAVYYCNAGPILERVGPYWGQGTQVTVSS,binding,[1],no binding
same,binding,[2],binds
same,binding,[3],binds

# These are yes or no findings as the source states them, for the method shown. For part of these data: Binding can be weak; no strength is given.
